Reference: PubChem BioAssay AID2685 (National Center for Advancing Translational Sciences (NCATS), 2010)
The other results are listed elsewhere or left out. Shown are side measurements of this screen, not its main read-out; they come without a call. Most of these compounds were active or inconclusive in the main read-out, so they are no random draw. Potencies come from curve fits of mixed quality, noted in brackets.

Test: qHTS Assay for Lipid Storage Modulators in Drosophila S3 Cells;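 for cell number change: cells counted by Cell Tracker Red CMTPX staining in the red channel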
Conditions: BODIPY lipid droplet fluorescence, 18-24 h; for cell number change: measured here: cell count max response, cells fed with added oleic acid
In short: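 Drosophila S3 cells got compounds at several concentrations plus oleic acid (400 uM solution). Laser-scanning cytometry with 488 nm excitation read lipid droplets at 500-530 nm and cells at 575-640 nm. Percent activity was relative to 20 uM Triacsin C.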

[1] = measured here: cell number channel AC50, cells fed with added oleic acid
[2] = measured here: lipid fluorescence (Fed channel) AC50, cells fed with added oleic acid

Row | SMILES | cell number change [%] | AC50 [1] | AC50 [2]
1 | Cc1ccc(NC(=O)N2CCCC2C(=O)NCCc2ccccc2)cc1 (centres undefined) | -26.8 | 4.11 µM [falling, full curve, poor fit] | 8.2 µM [falling, partial curve, poor fit]
2 | COc1ccc(S(=O)(=O)N(CC(=O)NCC2CCCO2)c2ccccc2)cc1OC (centres undefined) | 46.8 | 6.51 µM [falling, single point] | –
3 | Cc1ccc(-c2nn(-c3ccccc3)cc2/C=N/NS(=O)(=O)c2ccccc2)cc1 | 31.5 | 32.6 µM [rising, single point] | –
4 | COc1ccc(NS(=O)(=O)c2cc(NC(=O)C3CC3)ccc2N2CCCCC2)cc1 | – | 3.66 µM [rising, single point] | –
5 | O=C(NNc1c2ccccc2nc2ccccc12)c1ccc(O)cc1 | – | – | 7.31 µM [falling, partial curve]
6 | COc1ccccc1OCc1ccc(C(=O)N2N=C(C(F)F)CC2(O)C(F)F)o1 (centres undefined) | 9.59 | – | –
7 | O=C(Cc1ccccc1)Nc1ccccc1C(=O)O | -2.36 | – | –
8 | Cc1ccccc1N1C(S)=C(C#N)C(=O)NC12CCCCC2 | -49.8 | 18.4 µM [falling, single point] | 29.1 µM [falling, single point]
9 | C#CCOCCOCCOCCNc1nc(OC)nc(N2CCN(C(=O)[C@H](CCC(=O)O)n3cc(C(N)CO)nn3)CC2)n1 (some centres undefined) | -51.4 | 13 µM [falling, partial curve, poor fit] | 29.1 µM [falling, single point]
10 | O=C(NCCCn1ccnc1)C(=O)NCC1OCCN1S(=O)(=O)c1ccc(F)cc1 (centres undefined) | 36.5 | – | 0.116 µM [falling, partial curve, poor fit]
11 | CN(CC(=O)Nc1ccc(Cl)cc1)C(=O)CCc1ccccc1 | -21.4 | – | –
12 | COc1ccc(C(=O)NCc2csc(C(C)C)n2)cc1OC1CCN(C(C)=O)CC1 | 12.2 | – | 14.6 µM [rising, partial curve, poor fit]
13 | CC(Oc1cccc(Cl)c1)C(=O)Nc1ccc(N2CCOCC2)cc1N1CCOCC1 (centres undefined) | 6.52 | 2.06 µM [rising, partial curve] | 2.06 µM [rising, partial curve]
14 | CC1CN(C(=O)Nc2ccc(F)cc2F)CC(C)O1 (centres undefined) | 20.7 | – | 4.11 µM [rising, full curve, poor fit]
15 | COc1cccc(S(=O)(=O)Nc2ccc3c(c2)OCCO3)c1 | -3.16 | – | –
16 | Cc1cc(C)n(CC(O)CN(c2ccccc2)S(=O)(=O)c2ccc3ccccc3c2)n1 (centres undefined) | -1.59 | 0.92 µM [rising, partial curve, poor fit] | –
17 | COCc1cc(=O)n2[nH]c(C(F)(F)F)nc2n1 | -60.8 | 3.66 µM [falling, full curve] | 1.3 µM [falling, full curve, poor fit]
18 | CCN(CC)CCNCC(O)(c1ccc(Cl)cc1)c1ccc(Cl)cc1 | 3.93 | – | 1.64 µM [falling, partial curve, poor fit]
19 | CCOC(=O)C(CCC(=O)O)(CCC(C)C)c1csc(N)n1 (centres undefined) | -11.8 | 6.51 µM [falling, single point] | –
20 | Cc1nn(C)c(C)c1CN(Cc1nc(CCC(C)C)no1)C(C)C | -56.1 | 4.11 µM [falling, full curve] | 5.17 µM [falling, full curve]

Row | SMILES | cell number change [%] | AC50 [1] | AC50 [2]
21 | OC1CCN(Cc2cccc(Oc3ccccc3)c2)CC1 | 9.75 | 0.58 µM [rising, full curve, poor fit] | 14.6 µM [rising, partial curve]
22 | CC1CCN(CC(=O)Nc2ccc3c(c2)OCO3)CC1 | -21.3 | – | –
23 | O=C(CN1CCN(S(=O)(=O)c2ccc(Br)cc2)CC1)N/N=C/c1ccco1 | – | 4.61 µM [rising, single point] | 0.82 µM [falling, partial curve, poor fit]
24 | CC(C)[C@H](NC(=O)c1ccc(Cl)c([N+](=O)[O-])c1)C(=O)NCc1ccc(Cl)cc1Cl | 12.1 | – | 29.1 µM [rising, partial curve, poor fit]
25 | CC(C)CCN(C(=O)c1csnn1)C(C(=O)NC1CCCC1)c1ccc(F)cc1 (centres undefined) | -26.9 | – | –
26 | O=C(c1ccc(F)cc1)C1CCN(Cc2cn[nH]c2-c2ccc(F)cc2)CC1 | -2.65 | – | 6.51 µM [falling, single point]
27 | COc1ccc(C(c2nnnn2C2CCCC2)N2CCC(C)CC2)c(OC)c1 (centres undefined) | – | 0.164 µM [falling, full curve, poor fit] | 6.51 µM [rising, single point]
28 | O=C(NCCc1ccc(Cl)cc1)c1ccc2[nH]c(=O)c(=O)[nH]c2c1 | 3.44 | – | 16.4 µM [rising, single point]
29 | O=C(NCC1CCCO1)C(c1ccncc1)N(Cc1cccs1)C(=O)Cn1nnc(-c2ccc(F)cc2)n1 (centres undefined) | 1.02 | – | 3.66 µM [falling, partial curve, poor fit]
30 | CCCN(CCC)S(=O)(=O)c1ccc(NC(=O)c2cc(C(=O)OC)cc([N+](=O)[O-])c2)cc1 | 29.2 | – | –
31 | Cc1cccc(OCC(=O)N(C)c2c(N)n(Cc3ccccc3)c(=O)[nH]c2=O)c1C | -8.23 | – | 1.84 µM [falling, partial curve]
32 | Cc1cc(NS(=O)(=O)c2ccc(C3CCCCC3)cc2)no1 | -6.66 | – | 0.651 µM [falling, single point]
33 | Cc1cc(NC(=O)CSc2nnc(-c3ccoc3C)o2)no1 | 2.15 | – | 29.1 µM [falling, single point]
34 | O=C(Nc1ccccc1F)c1ccc(CN2CCc3ccccc3C2)cc1 | – | – | 29.1 µM [rising, single point]
35 | Cn1ccnc1SCC(=O)c1ccc(O)cc1 | -14.7 | – | 0.13 µM [falling, full curve, poor fit]
36 | CCC(=O)NC(c1ccc([N+](=O)[O-])cc1)c1c(O)ccc2ccccc12 (centres undefined) | -72.7 | 29.1 µM [falling, single point] | 29.1 µM [falling, single point]
37 | NS(=O)(=O)c1cccc(C(=O)NC2CCSc3ccccc32)c1 (centres undefined) | 23.7 | – | 3.55 µM [rising, partial curve]
38 | CCOC(=O)c1cc2c(=O)n3cccc(C)c3nc2n(C)c1=N | -11.6 | – | –
39 | CSc1sc(C)cc1C=O | -31.1 | – | 3.26 µM [falling, partial curve]
40 | O=C(COC(=O)c1ccc2c(c1)OCO2)Nc1ccccc1F | -31.3 | 29.1 µM [falling, single point] | 29.1 µM [falling, single point]

One compound at a time (already shown):
Cc1nn(C)c(C)c1CN(Cc1nc(CCC(C)C)no1)C(C)C as listed: cell number change [%]: -56.1; AC50 [1]: 4.11 µM [falling, full curve]; AC50 [2]: 5.17 µM [falling, full curve]
Cc1cc(C)n(CC(O)CN(c2ccccc2)S(=O)(=O)c2ccc3ccccc3c2)n1 (centres undefined) as listed: cell number change [%]: -1.59; AC50 [1]: 0.92 µM [rising, partial curve, poor fit]

Three compounds from above, ordered by formula weight, descending:
Row | SMILES | cell number change [%] | AC50 [1] | AC50 [2]
24 | CC(C)[C@H](NC(=O)c1ccc(Cl)c([N+](=O)[O-])c1)C(=O)NCc1ccc(Cl)cc1Cl | 12.1 | – | 29.1 µM [rising, partial curve, poor fit]
8 | Cc1ccccc1N1C(S)=C(C#N)C(=O)NC12CCCCC2 | -49.8 | 18.4 µM [falling, single point] | 29.1 µM [falling, single point]
14 | CC1CN(C(=O)Nc2ccc(F)cc2F)CC(C)O1 (centres undefined) | 20.7 | – | 4.11 µM [rising, full curve, poor fit]

(next part)

Row | SMILES | cell number change [%] | AC50 [1] | AC50 [2]
41 | CC1CN(S(=O)(=O)c2ccc(C(=O)O)cc2)CC(C)O1 (centres undefined) | -50.6 | 20.6 µM [falling, single point] | –
42 | O=C(c1ccccc1)N1CCN(C(=O)c2cc3ccccc3oc2=O)CC1 | -16.7 | – | –
43 | C(=N\Nc1nc2ccccc2[nH]1)/c1cccs1 | -46.1 | 29.1 µM [falling, single point] | 23.1 µM [falling, partial curve]
44 | Cc1cc(C)c(NC(=O)COC(=O)/C=C/c2cccc(C(F)(F)F)c2)c(C)c1 | 7.69 | – | 0.411 µM [rising, single point]
45 | CCCCc1nnc(NC(=O)CN2C(=O)c3ccccc3C2=O)s1 | 8.52 | – | 6.31 µM [falling, single point]
46 | CCOc1ccc(CN2CCNC(=O)C2CC(=O)NCCN2CCOC2=O)cc1 (centres undefined) | -25.2 | 0.00164 µM [falling, full curve] | –
47 | CC12CN3CCN(CC(C3)C1(O)CN1CCOCC1)C2 (centres undefined) | – | – | 1.46 µM [falling, full curve]
48 | Cc1occc1C(=O)NCc1ccccn1 | -78.2 | 32.6 µM [falling, single point] | 29.1 µM [falling, single point]
49 | Cc1ccc2c(c1)N(CC(=O)N1CCN(C3CCCCC3)CC1)C(=O)CO2 | 20.9 | 2.31 µM [rising, partial curve, poor fit] | 29.1 µM [rising, single point]
50 | CSc1ccc(-c2nc(CN3CCCCC3c3cccnc3)c(C)o2)cc1 (centres undefined) | -15.6 | – | 29.1 µM [falling, single point]
51 | CC1=CC(C)(C)Nc2ccc(OC(=O)CN3C(=O)c4ccccc4C3=O)cc21 | -32.1 | 29.1 µM [falling, single point] | 0.092 µM [rising, full curve, poor fit]
52 | Cc1c(N(C(=O)Nc2ccccc2)C2=NCC(C)S2)c(=O)n(-c2ccccc2)n1C (centres undefined) | -0.406 | – | –
53 | O=C(CCNC(=O)c1ccc([N+](=O)[O-])cc1)Nc1nc2ccccc2[nH]1 | 5.22 | – | –
54 | COc1ccc(C2C(C(=O)c3cccs3)=C(O)C(=O)N2CCN2CCOCC2)c(OC)c1 (centres undefined) | -23.4 | – | 29.1 µM [falling, partial curve, poor fit]
55 | O=C(C1CCN(S(=O)(=O)c2cccnc2)CC1)N1CCN(c2ccccc2Cl)CC1 | 8.22 | 2.06 µM [rising, single point] | 0.13 µM [rising, full curve, poor fit]
56 | Cc1sc2ncnc(SCC(=O)NC3CCCC3)c2c1C | 10 | – | –
57 | Cc1nc(SCc2ccc(C(=O)O)cc2)c2c(C)c(C)sc2n1 | -1.38 | – | 6.51 µM [falling, single point]
58 | COc1ccccc1CNC(=O)c1ccc(NS(C)(=O)=O)cc1 | 7.94 | – | –
59 | CC(C)(C)c1ccc(CN2N=C(/C=C/c3ccccc3)CCC2=O)cc1 | – | – | 0.146 µM [rising, full curve, poor fit]
